From patent US20210246886A1, “Fluorosulfones” (3M INNOVATIVE PROPERTIES COMPANY, priority 2018, published 2021)
Where two headings read alike, the source gives them in different places.

What was measured:
[1] = cited from earlier work
[2] = Atmospheric lifetime from relative rate studies with hydroxyl radicals in a laboratory chamber
[3] = Global Warming Potential by IPCC AR5 method (radiative efficiency from FTIR combined with atmospheric lifetime); details: with stratospheric temperature adjustment and lifetime correction

Compound	Atmospheric Lifetime [2]	other results
FS(F)(F)(F)(F)F [SF6, sulfur hexafluoride, reference compound]	–	GWP ([1]; times that of CO2 (100 year ITH)): 22,200
FC(F)(F)C(F)(F)C(F)(F)N(C(F)(F)C(F)(F)C(F)(F)F)C(F)(F)C(F)(F)C(F)(F)F [CE4]	2,000 yr	–
COC(F)(C(F)(F)C(F)(F)F)C(F)(C(F)(F)F)C(F)(F)F (stereo not drawn) [CE2]	3.8 yr	–
FC(F)(F)C(F)(F)C(F)(F)C(F)(F)C(F)(F)C(F)(F)F [CE9]	–	GWP ([1]; 100 yr ITH): 9000
O=S(=O)(C(F)(F)C(F)(F)F)C(F)(F)C(F)(F)F [Example 3, Perfluorodiethylsulfone]	10 yr	Atmospheric Lifetime ([2]; relative rate vs chloromethane reference, reaction with hydroxyl radicals): 10 years; radiative efficiency [3]: 0.282 Wm^−2 ppbV^−1
1,1,1,2,2-pentafluoro-2-((trifluoromethyl)sulfonyl)ethane [Example 6]	8.2 yr	–
O=S(=O)(C(F)(F)C(F)(F)F)C(F)(F)C(F)(F)C(F)(F)C(F)(F)F [Example 4, 1,1,1,2,2,3,3,4,4-nonafluoro-4-((perfluoroethyl)sulfonyl)butane]	10 yr	–
